Data on one substance can be found in article PMC12137317.

Amino acid sequences for entries named in this document (tags omitted).
UniProt P52926: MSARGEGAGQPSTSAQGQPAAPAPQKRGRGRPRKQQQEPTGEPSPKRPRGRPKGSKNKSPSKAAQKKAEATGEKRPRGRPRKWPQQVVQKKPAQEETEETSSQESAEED
UniProt Q92794: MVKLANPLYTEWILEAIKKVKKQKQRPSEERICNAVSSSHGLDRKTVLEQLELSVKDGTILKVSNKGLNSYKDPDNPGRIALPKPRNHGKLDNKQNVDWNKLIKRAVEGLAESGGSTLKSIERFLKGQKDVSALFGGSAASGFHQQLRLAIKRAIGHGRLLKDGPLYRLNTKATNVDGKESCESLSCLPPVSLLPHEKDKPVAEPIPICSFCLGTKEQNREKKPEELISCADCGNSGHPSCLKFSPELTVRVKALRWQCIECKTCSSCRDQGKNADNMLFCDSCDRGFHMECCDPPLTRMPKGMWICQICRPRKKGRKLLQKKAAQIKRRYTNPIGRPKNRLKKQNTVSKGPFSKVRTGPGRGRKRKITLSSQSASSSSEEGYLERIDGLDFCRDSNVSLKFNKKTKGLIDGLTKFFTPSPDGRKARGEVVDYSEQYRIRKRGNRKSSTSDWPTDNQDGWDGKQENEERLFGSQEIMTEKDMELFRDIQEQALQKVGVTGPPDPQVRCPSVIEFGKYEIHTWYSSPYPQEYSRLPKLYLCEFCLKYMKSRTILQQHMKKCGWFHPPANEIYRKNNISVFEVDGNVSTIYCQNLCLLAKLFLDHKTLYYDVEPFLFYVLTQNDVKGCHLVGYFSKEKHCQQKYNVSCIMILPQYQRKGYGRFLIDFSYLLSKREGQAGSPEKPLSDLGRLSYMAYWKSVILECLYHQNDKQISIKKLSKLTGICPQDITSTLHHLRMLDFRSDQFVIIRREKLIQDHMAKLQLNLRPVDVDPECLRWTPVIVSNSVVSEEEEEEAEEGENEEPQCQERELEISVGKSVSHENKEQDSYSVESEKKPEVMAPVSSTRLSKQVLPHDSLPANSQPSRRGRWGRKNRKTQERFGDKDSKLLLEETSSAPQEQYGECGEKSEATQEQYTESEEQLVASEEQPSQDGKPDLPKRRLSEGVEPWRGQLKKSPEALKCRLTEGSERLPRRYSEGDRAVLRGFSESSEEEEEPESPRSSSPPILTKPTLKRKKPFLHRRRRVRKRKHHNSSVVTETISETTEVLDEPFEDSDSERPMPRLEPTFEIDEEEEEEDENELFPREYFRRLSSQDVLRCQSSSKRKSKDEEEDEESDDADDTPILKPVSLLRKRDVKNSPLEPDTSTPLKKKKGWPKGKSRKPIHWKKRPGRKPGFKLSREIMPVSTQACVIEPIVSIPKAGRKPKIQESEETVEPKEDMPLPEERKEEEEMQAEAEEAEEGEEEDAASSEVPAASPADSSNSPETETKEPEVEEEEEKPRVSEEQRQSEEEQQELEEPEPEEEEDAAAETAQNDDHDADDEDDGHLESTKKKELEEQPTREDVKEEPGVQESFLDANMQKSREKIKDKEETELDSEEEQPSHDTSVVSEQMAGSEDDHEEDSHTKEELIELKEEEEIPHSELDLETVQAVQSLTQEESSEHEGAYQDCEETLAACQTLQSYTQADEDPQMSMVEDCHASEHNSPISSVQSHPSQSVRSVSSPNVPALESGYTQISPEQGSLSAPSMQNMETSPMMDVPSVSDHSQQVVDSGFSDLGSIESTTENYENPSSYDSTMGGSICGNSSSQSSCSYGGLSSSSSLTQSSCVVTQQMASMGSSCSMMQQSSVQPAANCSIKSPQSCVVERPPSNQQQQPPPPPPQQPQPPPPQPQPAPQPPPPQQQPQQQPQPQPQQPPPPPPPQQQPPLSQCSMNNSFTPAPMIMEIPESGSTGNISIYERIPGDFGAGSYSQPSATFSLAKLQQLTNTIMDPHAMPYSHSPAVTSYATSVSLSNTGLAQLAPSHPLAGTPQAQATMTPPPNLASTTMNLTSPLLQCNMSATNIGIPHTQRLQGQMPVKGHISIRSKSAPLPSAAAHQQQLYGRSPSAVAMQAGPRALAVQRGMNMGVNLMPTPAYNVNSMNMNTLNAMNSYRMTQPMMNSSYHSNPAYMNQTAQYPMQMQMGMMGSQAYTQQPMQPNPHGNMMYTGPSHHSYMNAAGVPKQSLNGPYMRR

For this assay, the target named is High mobility group AT-hook 2 (HMGA2), full-length, overexpressed from pLVX-IRES-HMGA2 (human) (UniProt P52926). The experiment in a line: affinity purification with mass spectrometry; IP from MDA-MB-231 cells, vector versus HMGA2 cells; NP-40 lysis buffer; protein A/G magnetic beads; SDS-PAGE with Coomassie staining, then mass spectrometry.

No constants are given. Whether binding was seen depends on the method and setting. Binding seen in cells or lysates may run through a third protein. Here binding means that the protein was enriched with, or labelled near, the bait; the list need not be complete.

For “Lysine acetyltransferase 6A (KAT6A) in TNBC cells (from UniProt Q92794 1-2004)”, the binding result was “binds”.
